US20200060994A1, “METHODS OF TREATING PSYCHIATRIC STRESS DISORDERS” (Yeda Research and Development Co. Ltd., priority 2017, published 2020)

Tested on: importin α5 KO mice
Assay: Open field (OF) test, importin α5 KO mice
Format: in vivo, mouse
Conditions: FG-7142 5 mg/kg intraperitoneally, OF after 30 min
Experimental: All drugs were administered by intraperitoneal injection (I.P.). […] A. CNS Drug Rev.

SMILES: CNC(=O)c1cc2c(cn1)[nH]c1ccccc12 [FG-7142]
- average movement velocity: without affecting; also recorded: does not perturb

Entries after “also recorded” stand apart in the source; their conditions may differ.
